This note sets out measurements from patent US20160362463A1, “Pharmaceutical composition inhibiting interaction between MZF-1 and Elk-1” (China Medical University, priority 2015, published 2016).

Sequences of proteins named here, by UniProt entry; tags and fusion partners are left off. A change or cut given only in a name is not applied to a line headed by its entry. A line that says so, or that is headed by a name, gives the form on record, which may keep a tag or linker.
MZF-1-c-Myc (amino acids 1-485) (P28698-2, form named): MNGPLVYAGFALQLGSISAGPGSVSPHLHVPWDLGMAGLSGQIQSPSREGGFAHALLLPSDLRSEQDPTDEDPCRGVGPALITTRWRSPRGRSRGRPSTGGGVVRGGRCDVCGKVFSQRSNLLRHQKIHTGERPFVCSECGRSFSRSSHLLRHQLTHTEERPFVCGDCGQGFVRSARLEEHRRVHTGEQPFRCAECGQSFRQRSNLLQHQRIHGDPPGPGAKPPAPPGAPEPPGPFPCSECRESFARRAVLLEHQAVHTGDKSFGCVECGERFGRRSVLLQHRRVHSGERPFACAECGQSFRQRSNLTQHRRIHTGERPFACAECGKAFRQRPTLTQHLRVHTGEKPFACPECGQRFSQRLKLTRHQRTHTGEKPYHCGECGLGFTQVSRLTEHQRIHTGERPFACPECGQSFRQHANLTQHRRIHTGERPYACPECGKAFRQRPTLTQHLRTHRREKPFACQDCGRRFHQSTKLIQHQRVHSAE
MZF-1-c-Myc fragment, amino acids 1-141 (P28698-2, form named): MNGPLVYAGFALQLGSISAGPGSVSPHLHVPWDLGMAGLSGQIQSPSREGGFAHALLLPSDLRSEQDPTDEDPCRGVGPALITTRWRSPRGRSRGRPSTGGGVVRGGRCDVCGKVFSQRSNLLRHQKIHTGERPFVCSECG
MZF-1-c-Myc fragment, amino acids 1-72 (P28698-2, form named): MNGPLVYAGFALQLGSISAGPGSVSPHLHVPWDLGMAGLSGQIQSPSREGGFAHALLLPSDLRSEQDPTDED

To fix the notation:
T1: endogenous Elk-1 (Ets-like protein-1) (human) (UniProt P19419)
T1 sequence (looked up): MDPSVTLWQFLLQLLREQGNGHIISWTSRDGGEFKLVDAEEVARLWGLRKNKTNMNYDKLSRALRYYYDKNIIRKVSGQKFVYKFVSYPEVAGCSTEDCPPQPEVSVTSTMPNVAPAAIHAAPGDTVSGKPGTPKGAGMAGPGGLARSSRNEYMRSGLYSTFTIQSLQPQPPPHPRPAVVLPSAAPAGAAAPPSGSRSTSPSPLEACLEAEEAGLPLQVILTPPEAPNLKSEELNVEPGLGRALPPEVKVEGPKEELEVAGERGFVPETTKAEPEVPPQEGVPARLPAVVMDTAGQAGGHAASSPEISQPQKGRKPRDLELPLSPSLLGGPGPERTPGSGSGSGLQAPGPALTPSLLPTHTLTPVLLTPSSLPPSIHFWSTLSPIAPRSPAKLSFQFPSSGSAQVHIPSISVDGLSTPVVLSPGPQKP

T2: FLAG-Elk-1 (amino acids 1-428) (human, UniProt P19419 1-428)
T2 construct: range 1-428; Full-length Elk-1 expressed in HEK-293 cells; not shown: FLAG tag
T2 sequence (looked up): T1 sequence (looked up)

B1: Elk-1-c-Myc fragment, amino acids 145-428 (protein, human, UniProt P19419 145-428, looked up, not shown: small tags and cut ends)
chain: LARSSRNEYMRSGLYSTFTIQSLQPQPPPHPRPAVVLPSAAPAGAAAPPSGSRSTSPSPLEACLEAEEAGLPLQVILTPPEAPNLKSEELNVEPGLGRALPPEVKVEGPKEELEVAGERGFVPETTKAEPEVPPQEGVPARLPAVVMDTAGQAGGHAASSPEISQPQKGRKPRDLELPLSPSLLGGPGPERTPGSGSGSGLQAPGPALTPSLLPTHTLTPVLLTPSSLPPSIHFWSTLSPIAPRSPAKLSFQFPSSGSAQVHIPSISVDGLSTPVVLSPGPQKP
B2: Elk-1-c-Myc (amino acids 1-428) (protein, human, UniProt P19419 1-428, looked up, not shown: small tags and cut ends)
chain: T1 sequence (looked up)
B3: Elk-1-c-Myc fragment, amino acids 87-325 (protein, human, UniProt P19419 87-325, looked up, not shown: small tags and cut ends)
chain: SYPEVAGCSTEDCPPQPEVSVTSTMPNVAPAAIHAAPGDTVSGKPGTPKGAGMAGPGGLARSSRNEYMRSGLYSTFTIQSLQPQPPPHPRPAVVLPSAAPAGAAAPPSGSRSTSPSPLEACLEAEEAGLPLQVILTPPEAPNLKSEELNVEPGLGRALPPEVKVEGPKEELEVAGERGFVPETTKAEPEVPPQEGVPARLPAVVMDTAGQAGGHAASSPEISQPQKGRKPRDLELPLSP
B4: Elk-1-c-Myc fragment, amino acids 145-157 (peptide, UniProt P19419 145-157, looked up, not shown: small tags and cut ends)
chain: LARSSRNEYMRSG
B5: MZF-1-c-Myc fragment, amino acids 60-72 (peptide, UniProt P28698-2 60-72, looked up, not shown: small tags and cut ends)
chain: SDLRSEQDPTDED

Results are given in words; binding and its absence hold for the method and conditions named. Binding seen in cells or lysates may run through a third protein. Some results given as binding are weak or reduced against the parent protein; the word gives no strength. For part of these data: Sequences can lack the tags named with a protein.

In one test the target is T1, endogenous Elk-1 (Ets-like protein-1) (human). Put plainly: co-immunoprecipitation of endogenous proteins.
“endogenous MZF-1 (myeloid zinc finger 1) (from UniProt P28698 1-485)”: the binding entry was “binds”.

The target of another test is T3, FLAG-MZF-1 (amino acids 1-485) (human, UniProt P28698-2 1-485).
T3 construct: range 1-485; Full-length MZF-1 expressed in HEK-293 cells; not shown: FLAG tag
In words: co-immunoprecipitation, HEK-293 cells co-transfected with FLAG-MZF-1.
For B1, the binding entry is on record as “binds”. Turning to B2, the binding entry is on record as “binds”. In the case of B3, the binding result was “binds”. Still for that read-out and setting: under B4 stands “binds”.

In a further test the target is T2, FLAG-Elk-1 (amino acids 1-428). Put plainly: co-immunoprecipitation (anti-c-Myc IP, anti-FLAG blot), HEK-293 cells.
Regarding “MZF-1-c-Myc fragment, amino acids 1-141 (from UniProt P28698 1-141)”, the binding entry was “binds”. On the same count and under the same terms, the entry for “MZF-1-c-Myc fragment, amino acids 1-72 (from UniProt P28698 1-72)” is “binds”. Regarding “MZF-1-c-Myc (amino acids 1-485) (from UniProt P28698 1-485)”, the binding result is “binds”. For the molecule B5, the binding result is given as “binds”.
